Experiment: Reaction with glutathione (1H-NMR)
Conditions: 2 equivalents GSH, 1.1 mM complex, MeOD/D2O 1:1 v/v, pH 7.4, 298 K, less than 10 min

SMILES	Species seen by 1H-NMR after addition of GSH
Cc1c(C)c(C)[c-](C)c1C.[Cl-].[Rh+3].c1ccc(-c2cc3ccccc3[n-]2)nc1 [complex 1, [Cp*Rh(ind-py)Cl]]	only one set of signals
Cc1c(C)c(C)[c-](C)c1C.[Cl-].[Ir+3].c1ccc(-c2cc3ccccc3[n-]2)nc1 [complex 2, [Cp*Ir(ind-py)Cl]]	two species
Cc1ccc(C(C)C)cc1.[Cl-].[Ru+2].c1ccc(-c2cc3ccccc3[n-]2)nc1 [complex 3, [(p-cym)Ru(ind-py)Cl]]	only one set of signals
Cc1ccc(C(C)C)cc1.[Cl-].[Os+2].c1ccc(-c2cc3ccccc3[n-]2)nc1 [complex 4, [(p-cym)Os(ind-py)Cl]]	only one set of signals
